{"source": "patent US10660934B2", "about": "“Neuroprotective peptide” (SENJU PHARMACEUTICAL CO., LTD., priority 2016, dated 2020)", "key": {"[1]": {"system": "rat retinal ganglion cells (RGC)", "assay": "Hypoxia-induced cell death assay in rat retinal ganglion cells (Calcein-AM/Ethidium homodimer)", "format": "cell-based", "conditions": "100 nM; for suppression of cell death from hypoxia (in words): rat RGC, Test Example 3", "method": "Retinal ganglion cells were isolated by a magnetic activated cell sorting method (MACS). Retinas were harvested from neonatal rats (Slc: Sprague-Dawley, 7-day old) and the tissue was dissociated using a Neural Tissue Dissociation Kit (Miltenyi Biotec, 130-094-802). Then, using a Retinal Ganglion Cell Isolation Kit (Miltenyi Biotec, 130-096-209), the endothelial cells and microglia were removed, and a positive selection for CD90.1^+ RGC was carried out by means of CD90.1MicroBeads. The test was carried out with the approval of the Animal Test Ethics Committee based on the Act on Welfare and Management of Animals (Act number 105 of Oct. 1, 1973, last revision: Act number 38 of Jun. 12, 2013), etc. 2. Cell Culture\nAfter suspending the isolated RGC in a neurobasal medium (Gibco Corporation, 12348-017) containing a B27 supplement (Invitrogen, 0080085-SA), 1 mM of L-glutamine (Gibco, 25030), 50 ng/ml of BDNF (Peprotech, 25-02), 50 ng/ml of CNTF (Peprotech, 450-50) and 5 μm of Forskolin. (Sigma, F6886), they were seeded on a 96-well plate (Corning, 354596), ‘which’ was coated with poly-D-lysine/laminin, at a density of 5×10^3 cells/100 μl/well, and incubated at 37° C. and 5% CO2 for three days.\nAfter having replaced the media with neurobasal media comprising a B27 supplement, 1 mM of L-glutamine […] and each peptide, a hypoxia state (O2 concentration of 0.1% or less) was induced by putting the plate in an Anaero Pack rectangular jar with Anaero Pack Kenki 5% (Mitsubishi Gas Chemical Company, Inc., A-07) with hermetically sealing, and incubating at 37° C. After incubating for 24 hours under hypoxia condition, Calcein-AM and Ethidium homodimer (Invitrogen, L3224) were added to the media. As a result of staining the cells, it was possible to distinguish between the viable cells and the dead cells. The number of viable cells and dead cells were measured using an Image Pro plus, and the rate of viability was given as “the proportion of the viable cell count relative to the total cell count.” 4. Test Results\nThe isolation and incubation of RGC were performed by the same methods as for Test Example 3-1, and 2.\nCommercially available PRP4 (Abnova, H0011272-Q01) having the sequence of SEQ ID NO: 2, was used for Peptide 5. The evaluation of Peptide 5 was carried out by the same evaluation method as used for Test Example 3-3."}, "[2]": {"system": "SH-SY5Y cells", "assay": "Hypoxia-induced cell death assay in human neuroblastoma SH-SY5Y cells (LDH)", "format": "cell-based", "conditions": "100 nM", "method": "SH-SY5Y cells (ATCC) were sustainably cultured in a DMEM/F12 medium (Invitrogen, 11330-032) supplemented with a 10% serum (Invitrogen, 10062-147) under the condition of 37° C. and 5% CO2.\nThe cells were seeded on a 96-well plate (Iwaki, 3860-096) at a density of 2×10^4 cells/100 μl/well. The following day the medium was replaced with a DMEM/F12 medium comprising a 1% serum and 10 μM of a retinoic acid (Wako, 302-79-4) and differentiated by incubation for 2 days. After replacing the medium with a glucose-free DMEM medium supplemented with 100 nM of Peptide 1, a hypoxia state (O2 concentration of 0.1% or less) was induced by putting the plate in an Anaero Pack rectangular jar with Anaero Pack Kenki 5% (Mitsubishi Gas Chemical Company, Inc., A-07) with hermetically sealing, and culturing at 37° C. Alter culturing for 24 hours in the hypoxia state, the cell-death inhibiting rate by the peptide was calculated by measuring the amount of LDH in the cells and the medium, using an LDH cytotoxicity detection kit (Takara, MK401). Moreover, 100 nM of an IGF-1 was used as a positive control in the experiment IGF-1 has a protective effect against nerve cell death (Mol. Cell Neurosci, 2011, 47 (3), 181-190). 3. Test Results"}}, "note": "Not every detail of the peptide structures is certain; ends, links or a residue may be inferred. Some entries share one result that the patent states for a list of compounds. Where no end group is shown, it is not given here."}
{"substance": "HPPPPPFQ (peptide of PRP4) [Peptide 3]", "values": [{"measurement": "suppression of cell death from hypoxia (in words)", "setting": "[1]", "value": "significantly suppressed the cell death from hypoxia"}]}
{"substance": "HPPPPPFQNQQ (peptide of PRP4) [Peptide 2]", "values": [{"measurement": "suppression of cell death from hypoxia (in words)", "setting": "[1]", "value": "significantly suppressed the cell death from hypoxia"}]}
{"substance": "HPPPPPFQNQQRPP [Peptide 1, HPPPPPFQNQQRPP]", "values": [{"measurement": "suppression of cell death from hypoxia (in words)", "setting": "[2]", "value": "significantly suppressed the cell death from hypoxia"}, {"measurement": "Rate of cell-death suppression (%)", "setting": "[1]; 24 hours hypoxia, mean ± standard error (n = 14-19)", "value": "25.4 ± 7.8", "unit": "%"}, {"measurement": "suppression of cell death from hypoxia (in words)", "setting": "[1]", "value": "significantly suppressed the cell death from hypoxia"}]}
{"substance": "QQRPP (Peptide of PRP4) [Peptide 4]", "values": [{"measurement": "suppression of cell death from hypoxia (in words)", "setting": "[1]", "value": "significantly suppressed the cell death from hypoxia"}]}
